pIC50: −log10 of the molar value. For at least one compound, name, drawing or mass did not settle the structure.
Target: [35S]-TBPS binding, rat brain cortical membranes
Assay: Steroid inhibition of [35S]-TBPS binding
Conditions: Table 4, 3 nM [35S]-TBPS, in the presence of 5 mM GABA
Description: [35S]-t-Butylbicyclophosphorothionate (TBPS) binding assays using rat brain cortical membranes in the presence of 5 mM GABA has been described (Gee et al, J. Pharmacol. Exp. Ther. 1987, 241, 346-353; Hawkinson et al, Mol. Pharmacol. 1994, 46, 977-985; Lewin, A. H et al., Mol. Pharmacol. 1989, 35, 189-194).
Briefly, cortices are rapidly removed following decapitation of carbon dioxide-anesthetized Sprague-Dawley rats (200-250 g). The cortices are homogenized in 10 volumes of ice-cold 0.32 M sucrose using a glass/teflon homogenizer and centrifuged at 1500×g for 10 min at 4° C. The resultant supernatants are centrifuged at 10,000×g for 20 min at 4° C. to obtain the P2 pellets. The P2 pellets are resuspended in 200 mM NaCl/50 mM Na—K phosphate pH 7.4 buffer and centrifuged at 10,000×g for 10 min at 4° C. This washing procedure is repeated twice and the pellets are resuspended in 10 volumes of buffer. Aliquots ([…]) of the membrane suspensions are incubated with 3 nM [^35S]-TBPS and […] aliquots of test drug dissolved in dimethyl sulfoxide (DMSO) (final 0.5%) in the presence of 5 mM GABA. The incubation is brought to a final volume of 1.0 mL with buffer. Nonspecific binding is determined in the presence of […] and ranged from 15 to 25%. […] Filter bound radioactivity is measured by liquid scintillation spectrometry. […]

C[C@@]1(O)CCC[C@@]2(C)[C@H](CC[C@@H]3[C@@H]2CC[C@]2(C)[C@@H](C(=O)Cn4cc(C#N)cn4)CCC[C@@H]32)C1 [Example 16, 1-(2-((1S,4aS,4bR,6aR,8R,11aS,11bS,13aS)-8-hydroxy-8,11a,13a-trimethyloctadecahydro-1H-cyclohepta[a]phenanthren-1-yl)-2-oxoethyl)-1H-pyrazole-4-carbonitrile]
pIC50: > 7.00

— US20260098053A1, “COMPOSITIONS AND METHODS FOR TREATING CNS DISORDERS” (SAGE THERAPEUTICS, INC., priority 2019, published 2026)
